The results in this text go back to patent US20140274906A1 (NONO, published 2014).

The assay deals with ND2.1.3. The experiment in a line: dot blot (FIG. 2B); ND2.1.3 is the weaker comparator.

These are yes or no findings as the source states them, for the method shown. Binding calls can cover weak binding; strength is not graded here.

B1: biotinylated Src 40-58 peptide (peptide)
peptide: KPASADGHRGPSAAFVPAA
modifications: biotinylated (position not given)
B1: the binding entry is “binds”.
